Measured values: PMC10118886
Results are given in words; binding and its absence hold for the method and conditions named. Binding seen in cells or lysates may run through a third protein. Some results given as binding are weak or reduced against the parent protein; the word gives no strength.

Protein sequences, listed by entry. Tags and fused reporters are not part of them.
UniProt Q9HCE7: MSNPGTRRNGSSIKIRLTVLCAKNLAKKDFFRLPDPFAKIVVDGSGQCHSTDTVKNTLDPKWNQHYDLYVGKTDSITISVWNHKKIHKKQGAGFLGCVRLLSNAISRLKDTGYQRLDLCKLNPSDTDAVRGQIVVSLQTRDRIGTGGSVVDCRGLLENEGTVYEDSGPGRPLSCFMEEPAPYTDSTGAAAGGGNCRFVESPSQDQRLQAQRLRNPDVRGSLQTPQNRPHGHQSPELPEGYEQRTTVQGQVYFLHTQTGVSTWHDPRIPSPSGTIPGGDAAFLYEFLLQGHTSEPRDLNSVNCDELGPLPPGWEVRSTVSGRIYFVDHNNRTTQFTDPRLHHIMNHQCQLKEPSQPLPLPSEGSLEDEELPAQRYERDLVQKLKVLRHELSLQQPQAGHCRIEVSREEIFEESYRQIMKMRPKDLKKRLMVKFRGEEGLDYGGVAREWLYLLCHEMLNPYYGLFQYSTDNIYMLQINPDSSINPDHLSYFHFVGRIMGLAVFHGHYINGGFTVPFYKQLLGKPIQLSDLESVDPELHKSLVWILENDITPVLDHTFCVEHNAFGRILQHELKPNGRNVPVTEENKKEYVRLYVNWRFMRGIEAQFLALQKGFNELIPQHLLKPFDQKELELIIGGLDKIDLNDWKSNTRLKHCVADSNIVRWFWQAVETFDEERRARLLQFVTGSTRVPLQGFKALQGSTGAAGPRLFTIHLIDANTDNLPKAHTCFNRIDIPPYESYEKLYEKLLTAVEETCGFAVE

T1: Nuclear factor-erythroid 2-related factor 2 (Nrf2) (human (endogenous in LF cells)) (UniProt Q16236)
T1 sequence: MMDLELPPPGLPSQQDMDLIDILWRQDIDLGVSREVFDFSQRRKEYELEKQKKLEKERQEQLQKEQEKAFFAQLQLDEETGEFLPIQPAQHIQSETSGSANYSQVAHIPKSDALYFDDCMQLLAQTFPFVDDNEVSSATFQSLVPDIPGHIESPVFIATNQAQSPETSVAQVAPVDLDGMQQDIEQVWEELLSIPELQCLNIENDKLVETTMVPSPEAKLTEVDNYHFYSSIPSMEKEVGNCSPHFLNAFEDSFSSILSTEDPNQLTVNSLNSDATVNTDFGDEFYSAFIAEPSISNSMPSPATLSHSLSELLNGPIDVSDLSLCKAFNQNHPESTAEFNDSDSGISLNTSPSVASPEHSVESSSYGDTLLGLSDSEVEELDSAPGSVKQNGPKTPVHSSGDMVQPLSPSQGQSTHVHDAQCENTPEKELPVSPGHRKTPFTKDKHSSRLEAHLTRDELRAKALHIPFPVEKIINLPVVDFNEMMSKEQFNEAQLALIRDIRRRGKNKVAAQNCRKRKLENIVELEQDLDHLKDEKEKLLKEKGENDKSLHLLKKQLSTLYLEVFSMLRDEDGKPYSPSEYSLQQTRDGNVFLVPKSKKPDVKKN


Assays:
[1] = target: T1, Nuclear factor-erythroid 2-related factor 2 (Nrf2) (human (endogenous in LF cells)); assay: co-IP; reciprocal co-IP from LF cell lysate (NP-40 lysis solution); anti-Smurf1 or anti-Nrf2 antibody on Protein A/G beads, overnight at 4°C; western blot with anti-Smurf1 or anti-NRF2 antibodies
[2] = target: Smurf1 (human (endogenous in LF cells)) (UniProt Q9HCE7); assay: as above

Row | binding [1] | binding [2] | Molecule
1 | binds | – | Smurf1 (from UniProt Q9HCE7 1-757) (enzyme)
2 | – | binds | Nuclear factor-erythroid 2-related factor 2 (Nrf2) (protein, UniProt Q16236 1-605) MMDLELPPPGLPSQQDMDLIDILWRQDIDLGVSREVFDFSQRRKEYELEKQKKLEKERQEQLQKEQEKAFFAQLQLDEETGEFLPIQPAQHIQSETSGSANYSQVAHIPKSDALYFDDCMQLLAQTFPFVDDNEVSSATFQSLVPDIPGHIESPVFIATNQAQSPETSVAQVAPVDLDGMQQDIEQVWEELLSIPELQCLNIENDKLVETTMVPSPEAKLTEVDNYHFYSSIPSMEKEVGNCSPHFLNAFEDSFSSILSTEDPNQLTVNSLNSDATVNTDFGDEFYSAFIAEPSISNSMPSPATLSHSLSELLNGPIDVSDLSLCKAFNQNHPESTAEFNDSDSGISLNTSPSVASPEHSVESSSYGDTLLGLSDSEVEELDSAPGSVKQNGPKTPVHSSGDMVQPLSPSQGQSTHVHDAQCENTPEKELPVSPGHRKTPFTKDKHSSRLEAHLTRDELRAKALHIPFPVEKIINLPVVDFNEMMSKEQFNEAQLALIRDIRRRGKNKVAAQNCRKRKLENIVELEQDLDHLKDEKEKLLKEKGENDKSLHLLKKQLSTLYLEVFSMLRDEDGKPYSPSEYSLQQTRDGNVFLVPKSKKPDVKKN
